Laboratory results published in patent US20190185578A1.
Residue numbers refer to the chain shown, from its start. No constants are given. Whether binding was seen depends on the method and setting. Some binding calls cover weakened binding; strength is not graded here.

Chains of the proteins cited; added tags and fusions are not shown. Residues count along the entry.
UniProt P00742, residues 41-488: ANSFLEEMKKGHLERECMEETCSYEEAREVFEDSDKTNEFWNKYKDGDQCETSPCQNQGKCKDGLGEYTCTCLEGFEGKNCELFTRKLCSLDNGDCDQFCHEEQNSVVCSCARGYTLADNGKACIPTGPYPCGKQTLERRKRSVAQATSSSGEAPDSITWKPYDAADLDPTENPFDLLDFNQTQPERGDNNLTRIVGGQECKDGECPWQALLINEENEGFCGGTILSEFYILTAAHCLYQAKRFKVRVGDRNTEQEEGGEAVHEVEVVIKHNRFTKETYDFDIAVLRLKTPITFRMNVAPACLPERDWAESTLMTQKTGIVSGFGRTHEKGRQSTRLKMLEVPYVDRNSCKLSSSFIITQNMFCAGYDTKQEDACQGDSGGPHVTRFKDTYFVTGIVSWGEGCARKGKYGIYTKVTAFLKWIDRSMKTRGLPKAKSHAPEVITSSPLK

B1: JNK263 (heavy chain SEQ ID NO: 46 and light chain SEQ ID NO: 22) (antibody, V domains shown)
VH: QVQLVQSGSELKKPGASVKVSCKASGYTFTDNNMDWVRQAPGQGLEWMGDINTRSGGSIYNEEFQDRVIMTVDKSTDTAYMELSSLRSEDTATYHCARRKSYGYYLDEWGEGTLVTVSS
VL: DIQLTQSPSSLSASVGDSVTITCRASQSFTNYLNWYQQKPGKAPKVLIYGASTLQTGVPSRFSGGGSGAEYTLTISNLQPDDSATYYCQQSYSTPWTFGQGTKVEIK
B2: JNK339 (heavy chain SEQ ID NO: 46 and light chain SEQ ID NO: 23) (antibody, V domains shown)
VH: B1 VH
VL: DIVMTQSPSSLSASVGDRVTITCRTSQYIGTYLNWYQQKPGKAPKLLINSVSRLQTGVPSRFTGGGSGTDFTLTISSLQPEDFATYYCQQGYSTPWTFGQGTRVEIK
B3: JNK348 (heavy chain SEQ ID NO: 46 and light chain SEQ ID NO: 24) (antibody, V domains shown)
VH: B1 VH
VL: DIVMTQTPLSLSVTPGQPASISCKSSQSLLRSDGKTYLQWYLQKPGQSPQLLIYEVSSRFSGVPERFSGSGSGTDFTLEISRVEADDVGVYYCMQGLHLPWTFGQGTKVEVK
B4: JNK351 (heavy chain SEQ ID NO: 46 and light chain SEQ ID NO: 25) (antibody, V domains shown)
VH: B1 VH
VL: EIVLTQSPGTLSLSPGESGTLSCRASQSVNTRYLAWYYQRPGQVPRLLIYGTSNRATGIPDRFSGSGSGTDFTLTISRLEPGDSGVYYCQQSRSSQWTFGQGTKVEIK
B5: JNK360 (heavy chain SEQ ID NO: 46 and light chain SEQ ID NO: 26) (antibody, V domains shown)
VH: B1 VH
VL: VIWMTQSPSSVSASVGDRVTITCRASQGINSRLVWYQQKPGTAPKVLIYAASSLQSGVPSRFSGSGSGTDFTLTINSLQPEDFATYYCQQGNTFPWTFGQGTKVEVK
B6: JNK378 (heavy chain SEQ ID NO: 46 and light chain SEQ ID NO: 27) (antibody, V domains shown)
VH: B1 VH
VL: NIQMTQSPSSLSASVGDTVTITCRASQDISSWLAWYQHKPGRAPRSLIYTASSLQSGVPSRFSGSGSGTDFTLTITNLQPEDFATYYCQQAHSFPWSFGPGTNVEIK
B7: JNK382 (heavy chain SEQ ID NO: 46 and light chain SEQ ID NO: 28) (antibody, V domains shown)
VH: B1 VH
VL: DIVMTQSPSSVSASVGDRVTITCRASQGISKWLAWYQQKPGKAPKLLIDSATNLRSGVPSRFSGSGSGTDFTLTISSLQPEDLAFYYCQQGKSFPWTFGQGTKVEIK
B8: JNL036 (heavy chain SEQ ID NO: 46 and light chain SEQ ID NO: 29) (antibody, V domains shown)
VH: B1 VH
VL: QSVVTQPPSVSAAPGQKVTISCSGSSSNIGNNYVSWYQQLPGTAPKLLIYDNNKRPSGIPDRFSGSKSGTSATLGITGLQTGDEADYYCGTWDSSLSAYVFGTGTKVTVL
B9: JNL072 (heavy chain SEQ ID NO: 46 and light chain SEQ ID NO: 30) (antibody, V domains shown)
VH: B1 VH
VL: SYELTQPLSVSVAPGQTARIPCGGNNIGNKNVHWYQQKPGQAPVLVIYRDTNRPSGIPERFSGSNSGHTATLTISGAQAGDEADYSCQVWDSGTVVFGGGTKLTVL
B10: JNL095 (heavy chain SEQ ID NO: 46 and light chain SEQ ID NO: 31) (antibody, V domains shown)
VH: B1 VH
VL: SYVLTQPVSVSVARGQTATITCEGNHIGDKHVHWYHQRPGQAPILVMFRDARRPSGIPERLSGSNSGNTASLTISGAQAGDEGDYYCQVWDSSSAVVFGGGTKVTVV
B11: JNL176 (heavy chain SEQ ID NO: 46 and light chain SEQ ID NO: 32) (antibody, V domains shown)
VH: B1 VH
VL: SVLTQPPSLSAAPGQRVTISCSGSSSNIGNHLVSWHQQFPGTAPKALIYDNDRRPSGIPDRFSGSKSGTSATLDITGLQTGDEADYYCATWDASLRAVVFGGGTKLTVL
B12: JNL208 (heavy chain SEQ ID NO: 46 and light chain SEQ ID NO: 33) (antibody, V domains shown)
VH: B1 VH
VL: QSVLTQPPSVSGAPGQRVTVSCNGGSSNIGTGYDVHWYQQLPGTAPKIVIFGNSNRPSGVPGRFSGSKSGTSASLVIAGLQAEDEADYYCQSYDRSLSGYVFGTGTKVTVL
B13: JNL224 (heavy chain SEQ ID NO: 46 and light chain SEQ ID NO: 34) (antibody, V domains shown)
VH: B1 VH
VL: SYVLTQPRSVSGSPGQSVTISCTGTSSDVGRYNYVSWYQQRPGKAPKVMIYDVIKRPSGVPARFSGSKSGNTASLTISGLQPEDEADYYCSSYAGASSFVFGTGTKVTVL
B14: JNL260 (heavy chain SEQ ID NO: 46 and light chain SEQ ID NO: 35) (antibody, V domains shown)
VH: B1 VH
VL: QSVLTQPPSASGTPGQRVNISCSGSRSNIANNYVSWYQHLPGTVPKVLISDNDQRSSGVPDRFSGSKSGTSASLAISGLRSEDEADYYCAAWDDRMRGFVFGSGTKVTVL
B15: JNL056 (heavy chain SEQ ID NO: 46 and light chain SEQ ID NO: 36) (antibody, V domains shown)
VH: B1 VH
VL: B8 VL with V4L
B16: JNL059 (heavy chain SEQ ID NO: 46 and light chain SEQ ID NO: 37) (antibody, V domains shown)
VH: B1 VH
VL: NFMLTQPPSVSGAPRQRVTISCSGSSSNIGNRAVSWYQHVPGKPPRLIVYHDDVLSSGVSGRFSASKSGTSASLAISGLQSEDEADYFCAAWDARLNGWVFGGGTKLTVL
B17: JNL226 (heavy chain SEQ ID NO: 46 and light chain SEQ ID NO: 38) (antibody, V domains shown)
VH: B1 VH
VL: QSALTQPASVSGSPGQSITISCTGTSSDVGGYNYVSWYQQHPGKAPKLMIYDVSNRPSGVSNRFSGSKSGNTASLTISGLQAEDEADYYCSSYTSSSTLFGTGTKVTVL
B18: JNL250 (heavy chain SEQ ID NO: 46 and light chain SEQ ID NO: 39) (antibody, V domains shown)
VH: B1 VH
VL: QSVLTQPASVSGSPGQSITISCTGTSSDVGGYNYVSWYQQHPGKAPKLTIYDVSNRPSGVSNRFSGSKSGSSASLTISGLQAEDEADYYCSSYTTSGTYVFGTGTTVTVL
B19: JNL263 (heavy chain SEQ ID NO: 46 and light chain SEQ ID NO: 40) (antibody, V domains shown)
VH: B1 VH
VL: QSALTQPRSVSGSPGQSVTISCTGTSSDVGGYNYVSWYQQHPGKAPKLMIYDVSKRPSGVPDRFSGSKSGNTASLTISGLQAEDEADYYCCSYAGRRGYVFGTGTKVTVL
B20: JNL281 (heavy chain SEQ ID NO: 46 and light chain SEQ ID NO: 41) (antibody, V domains shown)
VH: B1 VH
VL: QSALTQPRSVSASPGQSVTISCTGTSSDVGFYKYVSWYQQYPGKAPKLMIYDVSKRPSGVPDRFSGSKSGNTASLTISGLQAEDEADYYCCSYAGSNTVFGTGTKVTVL
B21: JNK131 (heavy chain SEQ ID NO: 46 and light chain SEQ ID NO: 19) (antibody, V domains shown)
VH: B1 VH
VL: NIQMTQSPSSVSASVGDTVTITCRASQYISDRLAWYQQKPGRPPKVLIYRASNLQSGVPSRFRGSGSGTDFTLTINSLQPEDFAIYYCQQAKNFPWAFGQGTKVEFK
B22: JNK163 (heavy chain SEQ ID NO: 46 and light chain SEQ ID NO: 20) (antibody, V domains shown)
VH: B1 VH
VL: NIQMTQSPSSLSASVGDRVTITCRASQSIRSYLNWYQQKPGKAPKLLIYGAFTLQTGVPSRFSGSASGTDFTLTINNLQPEDFAVYHCQQSYRIPWTFGQGTKVEIK
B23: JNK252 (heavy chain SEQ ID NO: 46 and light chain SEQ ID NO: 21) (antibody, V domains shown)
VH: B1 VH
VL: NIQMTQSPASLSASVGDKVTITCQASQDIGTSLNWYQQRPGTAPKLLIFDTSNLEKGVPSRFSGSKSETYFTFAISSLQPEDIATYYCQQSYNIPWTFGRGTKVEIT

Target: biotinylated human FX (human) (UniProt P00742)
Assay: panning of an L chain library (fixed ACE910 H chain) on biotinylated human FX; no read-out printed

Row | Binder | binding
1 | B1 | binds
2 | B2 | binds
3 | B3 | binds
4 | B4 | binds
5 | B5 | binds
6 | B6 | binds
7 | B7 | binds
8 | B8 | binds
9 | B9 | binds
10 | B10 | binds
11 | B11 | binds
12 | B12 | binds
13 | B13 | binds
14 | B14 | binds
15 | B15 | binds
16 | B16 | binds
17 | B17 | binds
18 | B18 | binds
19 | B19 | binds
20 | B20 | binds
21 | B21 | binds
22 | B22 | binds
23 | B23 | binds
